Reference: patent US5635477A (The DuPont Merck Pharmaceutical Company, priority 1995, dated 1997)

Assay: general procedure: Boc solid-phase peptide synthesis; oxime resin (substitution level=0.96 mmol/g); HBTU or TBTU with N-methylmorpholine
Details: for cyclisation yield: cyclisation step; for isolated yield: overall
[1] = late stage modification step, TFA salt
[2] = late stage modification step, acetate salt
[3] = whole synthesis, scale 0.283 mmol, TFA salt
[4] = whole synthesis, scale 0.193 mmol, TFA salt
[5] = late stage modification step, on protected cyclic peptide, TFA salt
[6] = whole synthesis, scale 0.101 mmol, TFA salt
[7] = late stage modification step, fluoride salt
[8] = whole synthesis, scale 0.586 mmol, TFA salt
[9] = whole synthesis, scale 0.611 mmol, TFA salt
[10] = whole synthesis, scale 0.43 mmol, TFA salt
[11] = whole synthesis, scale 0.244 mmol, TFA salt
[12] = whole synthesis, scale 0.266 mmol, TFA salt
[13] = whole synthesis, scale 0.202 mmol, TFA salt
[14] = whole synthesis, scale 0.115 mmol, TFA salt
[15] = purification step, TFA salt, run 1
[16] = whole synthesis, TFA salt, run 1
[17] = whole synthesis, scale 0.596 mmol, TFA salt
[18] = whole synthesis, scale 0.324 mmol, TFA salt

4,4'-Dinitrobenzophenone Oxime Boc-D-Val-NMeArg(Tos)-Gly-ASp(OcHex)-2-aminomethylphenylacetate
step yield (coupling step, TFA salt): 95%

Cyclo[L-aspartyl(pivaloyloxymethyl)-3-(aminomethyl)benzoyl-D-2-aminobutyryl-L-arginyl-glycyl]
step yield [1]: 26%

Cyclo[L-aspartyl(t-butyl)-3-(aminomethyl)benzoyl-D-2-aminobutyryl-N^ω, N^ω '-(bisbenzyloxycarbonyl)-L-arginyl-glycyl]
cyclisation yield (TFA salt): 90%

Cyclo[L-aspartyl-3-(aminomethyl)benzoyl-D-2-aminobutyryl-N^ω, N^ω '-(bisbenzyloxycarbonyl)-L-arginyl-glycyl]
step yield [1]: 97%

PEPTIDE1{F.R.G.D.[Mamb]}$PEPTIDE1,PEPTIDE1,1:R1-5:R2$$$V2.0
step yield [2]: 98% | step yield (purification step, TFA salt): 32% | isolated yield (whole synthesis, TFA salt): 31.5% | crude mass (whole synthesis, scale 0.335 mmol, TFA salt): 306 mg

PEPTIDE1{G.R.G.D.[Mamb]}$PEPTIDE1,PEPTIDE1,1:R1-5:R2$$$V2.0
step yield (purification step, TFA salt): 36% | isolated yield (whole synthesis, TFA salt): 19.9% | crude mass [3]: 62 mg | crude yield [3]: 58%

PEPTIDE1{[D-Abu].R.G.D.[Mamb]}$PEPTIDE1,PEPTIDE1,1:R1-5:R2$$$V2.0
step yield [2]: 99% | step yield (purification step, TFA salt): 57% | isolated yield (whole synthesis, TFA salt): 72.2% | crude mass [4]: 210 mg

PEPTIDE1{[D-Abu].[NMeArg].G.D.[4I-Mamb]}$PEPTIDE1,PEPTIDE1,1:R1-5:R2$$$V2.0
step yield (purification step, TFA salt): 28.7% recovery | isolated yield (whole synthesis, TFA salt): overall yield 30.2% | crude mass (whole synthesis, protected cyclic peptide, scale 3.53 mmol, TFA salt): 4070 mg

PEPTIDE1{[D-Abu].[NMeArg].G.D.[Mamb6Cl]}$PEPTIDE1,PEPTIDE1,1:R1-5:R2$$$V2.0
step yield [1]: 41%

PEPTIDE1{[D-Abu].[NMeArg].G.D.[Mamb6I]}$PEPTIDE1,PEPTIDE1,1:R1-5:R2$$$V2.0
step yield [1]: 49%

PEPTIDE1{[D-Abu].[NMeArg].G.D.[Mamb6Me]}$PEPTIDE1,PEPTIDE1,1:R1-5:R2$$$V2.0
step yield [1]: 28%

PEPTIDE1{[D-Abu].[NMeArg].G.D.[Mamb]}$PEPTIDE1,PEPTIDE1,1:R1-5:R2$$$V2.0
step yield [5]: 68.7% | step yield (purification step, TFA salt): 31% recovery | isolated yield (whole synthesis, TFA salt): 12.4% | crude mass [6]: 51 mg | crude yield [6]: 63%

PEPTIDE1{[D-Nle].[NMeArg].G.D.[Mamb]}$PEPTIDE1,PEPTIDE1,1:R1-5:R2$$$V2.0
step yield [7]: 95.4% | step yield (purification step, TFA salt): 44% | isolated yield (whole synthesis, TFA salt): 22.9% | crude mass [8]: 305 mg | crude yield [8]: 63.3%

PEPTIDE1{[D-Phg].[NMeArg].G.D.[Mamb]}$PEPTIDE1,PEPTIDE1,1:R1-5:R2$$$V2.0
step yield [7]: 98.9% | step yield (purification step, TFA salt): 24.2% | isolated yield (whole synthesis, TFA salt): 11.9% | crude mass [9]: 296 mg | crude yield [9]: 57.4%

PEPTIDE1{[NMeGly].[NMeArg].G.D.[Mamb]}$PEPTIDE1,PEPTIDE1,1:R1-5:R2$$$V2.0
step yield [2]: 97% | step yield (purification step, TFA salt): 14.7% | isolated yield (whole synthesis, TFA salt): 7.9% | crude mass [10]: 205 mg | crude yield [10]: 60%

PEPTIDE1{[bAla].[NMeArg].G.D.[Mamb]}$PEPTIDE1,PEPTIDE1,1:R1-5:R2$$$V2.0
step yield (purification step, TFA salt): 53.2% | isolated yield (whole synthesis, TFA salt): 32.5% | crude mass [8]: 264 mg | crude yield [8]: 57.5%

PEPTIDE1{[dA].R.G.D.[Mamb]}$PEPTIDE1,PEPTIDE1,1:R1-5:R2$$$V2.0
step yield [2]: 83% | step yield (purification step, TFA salt): 12.5% | isolated yield (whole synthesis, TFA salt): 13.8% | crude mass (whole synthesis, scale 0.189 mmol, TFA salt): 211 mg

PEPTIDE1{[dA].[NMeArg].G.D.[Mamb]}$PEPTIDE1,PEPTIDE1,1:R1-5:R2$$$V2.0
difficulty met (whole synthesis, TFA salt): Recoupling of the Boc-N-MeArg(Tos) residue was found to be necessary | crude mass [11]: 117 mg | crude yield [11]: 61%

PEPTIDE1{[dF].R.G.D.[Mamb]}$PEPTIDE1,PEPTIDE1,1:R1-5:R2$$$V2.0
step yield (purification step, TFA salt): 35% | isolated yield (whole synthesis, TFA salt): 29.3% | crude mass [12]: 202 mg | crude yield [12]: 90%

PEPTIDE1{[dF].[NMeArg].G.D.[Mamb]}$PEPTIDE1,PEPTIDE1,1:R1-5:R2$$$V2.0
step yield (purification step, TFA salt): 35% | isolated yield (whole synthesis, TFA salt): 8.7% | crude mass [9]: 140 mg | crude yield [9]: 26.7%

PEPTIDE1{[dK].[NMeArg].G.D.[Mamb]}$PEPTIDE1,PEPTIDE1,1:R1-5:R2$$$V2.0
step yield (late stage modification step, difluoride salt): 79.1% | step yield (purification step, TFA salt): 33.6% | isolated yield (whole synthesis, TFA salt): 12.1% | crude mass [8]: 349 mg | crude yield [8]: 58.9%

PEPTIDE1{[dL].R.G.D.[Mamb]}$PEPTIDE1,PEPTIDE1,1:R1-5:R2$$$V2.0
step yield [2]: 66% | step yield (purification step, TFA salt): 26% | isolated yield (whole synthesis, TFA salt): 14.8% | crude mass [13]: 152 mg | crude yield [13]: 93%

PEPTIDE1{[dL].[NMeArg].G.D.[Mamb]}$PEPTIDE1,PEPTIDE1,1:R1-5:R2$$$V2.0
step yield [2]: 63% | step yield (purification step, TFA salt): 29% | isolated yield (whole synthesis, TFA salt): 16.5% | crude mass [14]: 92.4 mg | crude yield [14]: 98%

PEPTIDE1{[dP].[NMeArg].G.D.[Mamb]}$PEPTIDE1,PEPTIDE1,1:R1-5:R2$$$V2.0
step yield [2]: 93.3% | step yield (purification step, TFA salt): 6.4% | isolated yield (whole synthesis, TFA salt): 3.3% | crude mass [10]: 211 mg | crude yield [10]: 60.8%

PEPTIDE1{[dS].R.G.D.[Mamb]}$PEPTIDE1,PEPTIDE1,1:R1-5:R2$$$V2.0
step yield [2]: 89% | step yield (purification step, TFA salt): 22% | isolated yield (whole synthesis, TFA salt): 27% | crude mass [4]: 224 mg

PEPTIDE1{[dV].R.G.D.[Mamb]}$PEPTIDE1,PEPTIDE1,1:R1-5:R2$$$V2.0
step yield [2]: 86% | step yield (purification step, TFA salt): 57% | isolated yield (whole synthesis, TFA salt): 58.1% | crude mass [4]: 199 mg

PEPTIDE1{[dV].[NMeArg].G.D.[3Apa]}$PEPTIDE1,PEPTIDE1,1:R1-5:R2$$$V2.0
step yield [1]: 50%

PEPTIDE1{[dV].[NMeArg].G.D.[4Cl-Mamb]}$PEPTIDE1,PEPTIDE1,1:R1-5:R2$$$V2.0
step yield [1]: 39%

PEPTIDE1{[dV].[NMeArg].G.D.[4I-Mamb]}$PEPTIDE1,PEPTIDE1,1:R1-5:R2$$$V2.0
step yield [1]: 95.6% | step yield (purification step, TFA salt): 39.7% recovery | isolated yield (whole synthesis, TFA salt): overall yield 16.6% | crude yield (whole synthesis, protected cyclic peptide, TFA salt): 46.8% | crude mass (whole synthesis, protected cyclic peptide, scale 1.05 mmol, TFA salt): 460 mg

PEPTIDE1{[dV].[NMeArg].G.D.[4Me-Mamb]}$PEPTIDE1,PEPTIDE1,1:R1-5:R2$$$V2.0
step yield [1]: 42%

PEPTIDE1{[dV].[NMeArg].G.D.[6Cl-Mamb]}$PEPTIDE1,PEPTIDE1,1:R1-5:R2$$$V2.0
step yield [1]: 54%

PEPTIDE1{[dV].[NMeArg].G.D.[6MeO-Mamb]}$PEPTIDE1,PEPTIDE1,1:R1-5:R2$$$V2.0
step yield [1]: 63%

PEPTIDE1{[dV].[NMeArg].G.D.[8AmTet2CA]}$PEPTIDE1,PEPTIDE1,1:R1-5:R2$$$V2.0 [89a]
step yield [15]: 12.5% recovery | isolated yield [16]: overall yield 6.2%

PEPTIDE1{[dV].[NMeArg].G.D.[8AmTet2CA]}$PEPTIDE1,PEPTIDE1,1:R1-5:R2$$$V2.0 [89b]
step yield [15]: 18.6% recovery | isolated yield [16]: overall yield 9.3%

PEPTIDE1{[dV].[NMeArg].G.D.[Mamb6Me]}$PEPTIDE1,PEPTIDE1,1:R1-5:R2$$$V2.0
step yield [1]: 27%

PEPTIDE1{[dV].[NMeArg].G.[NMeAsp].[Mamb]}$PEPTIDE1,PEPTIDE1,1:R1-5:R2$$$V2.0
step yield [7]: 96.4% | step yield (purification step, TFA salt): 28.2% | isolated yield (whole synthesis, TFA salt): 10.9% | crude mass [9]: 232 mg | crude yield [9]: 46.1%

PEPTIDE1{[dV].[NMeArg].G.[aMeAsp].[Mamb]}$PEPTIDE1,PEPTIDE1,1:R1-5:R2$$$V2.0 [Example 63/63a isomer #1]
step yield [15]: 8.36% | isolated yield [16]: 2.5%

PEPTIDE1{[dV].[NMeArg].G.[aMeAsp].[Mamb]}$PEPTIDE1,PEPTIDE1,1:R1-5:R2$$$V2.0 [Example 63/63a isomer #2]
step yield [15]: 9.16% | isolated yield [16]: 2.7%

PEPTIDE1{[dV].[NMeArg].G.[dD].[Mamb]}$PEPTIDE1,PEPTIDE1,1:R1-5:R2$$$V2.0
step yield (purification step, TFA salt): 44.4% | isolated yield (whole synthesis, TFA salt): 20.7% | crude mass [9]: 257 mg | crude yield [9]: 51.9%

PEPTIDE1{[dV].[NMeArg].[bAla].D.[Mamb]}$PEPTIDE1,PEPTIDE1,1:R1-5:R2$$$V2.0
step yield [7]: 93.2% | step yield (purification step, TFA salt): 43.6% | isolated yield (whole synthesis, TFA salt): 16.5% | crude mass [8]: 227 mg | crude yield [8]: 46.9%

PEPTIDE1{[dY].[NMeArg].G.D.[Mamb]}$PEPTIDE1,PEPTIDE1,1:R1-5:R2$$$V2.0
step yield (purification step, TFA salt): 11.3% | isolated yield (whole synthesis, TFA salt): 10.8% | crude mass (whole synthesis, scale 0.313 mmol, TFA salt): 342 mg

TFA.D-Val-NMeArg(Tos)-Gly-Asp(OcHex)-MAMB-Ox
step yield [1]: 98%

cyclo (.D-Val-NMeArg(Tos)-Gly-Asp(OcHex)-MAMB)
cyclisation yield (TFA salt): 86%

cyclo-(Abu-NMeArg-Gly-Asp-Mamb)
step yield [5]: 90.4% | step yield (purification step, TFA salt): 1.92% recovery | isolated yield (whole synthesis, TFA salt): 0.574% | crude mass [17]: 182 mg | crude yield [17]: 38.4%

cyclo-(Ala-Arg-Gly-Asp-Mamb)
step yield [2]: 97.4% | step yield (purification step, TFA salt): 15.5% | isolated yield (whole synthesis, TFA salt): 10.5% | crude mass [18]: 191 mg | crude yield [18]: 76.4%

cyclo-(D-Abu-(DiNMe,guanidinyl-Orn)-Gly-Asp-Mamb)
step yield [1]: overall yield 53.5% | step yield (purification step, TFA salt): 57.2% recovery

Some peptides are written in HELM: one residue between dots, names in brackets for other building blocks, links after the first $.
